Consider four molecules from article PMC11085366.

Assay [1] addresses T1, Caprin1 fragment 351–390 in pCS2-GFP-Myc (human).
T1 sequence: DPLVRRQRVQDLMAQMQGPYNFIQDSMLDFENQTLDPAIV
Description: co-IP; HEK293T cells transfected with expression plasmids; lysates (50 mM Tris HCl pH 7.6, 150 mM NaCl, 0.5% NP40, 1 mM EDTA) precipitated with anti-Myc antibody and protein A/G beads at 4 °C; Western blot. Background: Immunoblotting shows a protein as a band on a membrane.

Assay [2] addresses Ras-GTPase-activating protein SH3 domain-binding protein 1 (G3BP1), expressed from pCS2-Flag or pCS2-Myc (human) (UniProt Q13283). Description: co-IP; unstressed HEK293T cells transfected with expression plasmids; lysates (50 mM Tris HCl pH 7.6, 150 mM NaCl, 0.5% NP40, 1 mM EDTA) precipitated with anti-Flag antibody and protein A/G beads at 4 °C; Western blot.
The target in a further assay is GST-G3BP1 (human) (UniProt Q13283). Description: pull-down; GST-G3BP1 on glutathione beads incubated with lysates of transfected 293T cells at 4 °C for 1 h; Western blot; only the target purified.

These are yes or no findings as the source states them, for the method shown. Binding seen in cells or lysates may run through a third protein. Some results given as binding are weak or reduced against the parent protein; the word gives no strength. Tags and fused reporters may be left off the sequences shown.

On to “Ras-GTPase-activating protein SH3 domain-binding protein 1 (G3BP1), expressed from pCS2-Flag or pCS2-Myc (from UniProt Q13283 1-466)”, for which, in assay [1], the binding entry is reported as “binds”.

B1: Ras-GTPase-activating protein SH3 domain-binding protein 2 (G3BP2), expressed from pCS2-Flag or pCS2-Myc (protein, UniProt Q9UN86 1-482)
chain: MVMEKPSPLLVGREFVRQYYTLLNKAPEYLHRFYGRNSSYVHGGVDASGKPQEAVYGQNDIHHKVLSLNFSECHTKIRHVDAHATLSDGVVVQVMGLLSNSGQPERKFMQTFVLAPEGSVPNKFYVHNDMFRYEDEVFGDSEPELDEESEDEVEEEQEERQPSPEPVQENANSGYYEAHPVTNGIEEPLEESSHEPEPEPESETKTEELKPQVEEKNLEELEEKSTTPPPAEPVSLPQEPPKAFSWASVTSKNLPPSGTVSSSGIPPHVKAPVSQPRVEAKPEVQSQPPRVREQRPRERPGFPPRGPRPGRGDMEQNDSDNRRIIRYPDSHQLFVGNLPHDIDENELKEFFMSFGNVVELRINTKGVGGKLPNFGFVVFDDSEPVQRILIAKPIMFRGEVRLNVEEKKTRAARERETRGGGDDRRDIRRNDRGPGGPRGIVGGGMMRDRDGRGPPPRGGMAQKLGSGRGTGQMEGRFTGQRR
As to B1, in assay [2], the binding entry is listed as “binds”.
For DLMAQMQGPYNFIQDSMLDFENQTL (domain or fragment) [Caprin1 fragment 361–385 in pCS2-GFP-Myc], the binding entry with GST-G3BP1 (human) is reported as “binds”.
The same measure, in the same setting: under DPLVRRQRVQDLMAQMQGPYNFIQDSMLDFENQTLDPAIV (domain or fragment) [Caprin1 fragment 351–390 in pCS2-GFP-Myc] stands “binds”.
